Results deposited as PubChem BioAssay AID1224827 (NIAID, 2016)

- Aim: 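Retest primary hits on a TNF reporter with six siRNAs per gene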 (follow-up of hits)
- Cells: RAW264.7 G9 mouse macrophage reporter clone
- Reagents: single siRNA against mouse genes, 100 nM siRNA
- Duration: siRNA for 2 days, then LPS about 16 h
- Conditions: bacterial lipopolysaccharide (LPS), 10 ng/ml, cells fixed after overnight (about 16 h) stimulation
- Read-out: 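Imaged nuclear TNF reporter intensity, background removed, scaled per plate and to non-targeting control wells, as z-scores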
- Reading the numbers: TNF reporter z-score, mean: higher = stronger Tnf promoter reporter signal; gene median z, three same-vendor siRNAs: higher = stronger Tnf reporter signal for the gene
- Rule for the call: 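An siRNA is called active when its mean z-score over replicates is at least +2 or at most -2; control wells get no call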
The whole screen tested about 3,800 reagents; shown is a part drawn at random. In the full data, about 2,200 (57%) are marked active. 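Active means a strong reporter change in either direction; calls are per siRNA, not per gene; qiagen siRNAs gave weaker effects.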 The numbers tell different reagents against one gene apart. Not all columns of the deposit are shown.

For Hdac5 (GeneID 15184) #1, how do the results read?
TNF reporter z-score, mean: -2.29; gene median z, three same-vendor siRNAs: -2.85; activity call: active

With Hdac5 (GeneID 15184) #2, how do the results read?
TNF reporter z-score, mean: -2.79; gene median z, three same-vendor siRNAs: -2.85; activity call: active

What is on record for Hdac5 (GeneID 15184) #3?
TNF reporter z-score, mean: -3.84; gene median z, three same-vendor siRNAs: -2.85; activity call: active

What is on record for Hdac5 (GeneID 15184) #4?
TNF reporter z-score, mean: 3.49; gene median z, three same-vendor siRNAs: -0.903; activity call: active

What did the screen give for Hdac5 (GeneID 15184) #5?
TNF reporter z-score, mean: -1.37; gene median z, three same-vendor siRNAs: -0.903; activity call: inactive

Which result is listed for Hdac5 (GeneID 15184) #6?
TNF reporter z-score, mean: -2.05; gene median z, three same-vendor siRNAs: -0.903; activity call: active

What is on record for Tnfrsf22 (GeneID 79202) #1?
TNF reporter z-score, mean: 0.378; gene median z, three same-vendor siRNAs: -2.67; activity call: inactive

What did the screen give for Tnfrsf22 (GeneID 79202) #2?
TNF reporter z-score, mean: -2.67; gene median z, three same-vendor siRNAs: -2.67; activity call: active

What is on record for Tnfrsf22 (GeneID 79202) #3?
TNF reporter z-score, mean: -3.86; gene median z, three same-vendor siRNAs: -2.67; activity call: active

What did the screen give for Tnfrsf22 (GeneID 79202) #4?
TNF reporter z-score, mean: 2.47; gene median z, three same-vendor siRNAs: 1.21; activity call: active

How did the screen score Tnfrsf22 (GeneID 79202) #5?
TNF reporter z-score, mean: 0.432; gene median z, three same-vendor siRNAs: 1.21; activity call: inactive

What did the screen give for Tnfrsf22 (GeneID 79202) #6?
TNF reporter z-score, mean: 0.862; gene median z, three same-vendor siRNAs: 1.21; activity call: inactive

In a second layout: 5 of the entries above.
{"Gene": "Hdac5 (GeneID 15184)", "reagent no.": 2, "TNF reporter z-score, mean": -2.79, "gene median z, three same-vendor siRNAs": -2.85, "activity call": "active"}
{"Gene": "Hdac5 (GeneID 15184)", "reagent no.": 3, "TNF reporter z-score, mean": -3.84, "gene median z, three same-vendor siRNAs": -2.85, "activity call": "active"}
{"Gene": "Hdac5 (GeneID 15184)", "reagent no.": 4, "TNF reporter z-score, mean": 3.49, "gene median z, three same-vendor siRNAs": -0.903, "activity call": "active"}
{"Gene": "Hdac5 (GeneID 15184)", "reagent no.": 5, "TNF reporter z-score, mean": -1.37, "gene median z, three same-vendor siRNAs": -0.903, "activity call": "inactive"}
{"Gene": "Hdac5 (GeneID 15184)", "reagent no.": 6, "TNF reporter z-score, mean": -2.05, "gene median z, three same-vendor siRNAs": -0.903, "activity call": "active"}

More reagents:
Which result is listed for Itpr1 (GeneID 16438) #1?
TNF reporter z-score, mean: 0.607; gene median z, three same-vendor siRNAs: -1.33; activity call: inactive

With Itpr1 (GeneID 16438) #2, what was measured?
TNF reporter z-score, mean: -1.33; gene median z, three same-vendor siRNAs: -1.33; activity call: inactive

What did the screen give for Itpr1 (GeneID 16438) #3?
TNF reporter z-score, mean: -3.88; gene median z, three same-vendor siRNAs: -1.33; activity call: active

With Itpr1 (GeneID 16438) #4, how do the results read?
TNF reporter z-score, mean: -0.888; gene median z, three same-vendor siRNAs: -3.54; activity call: inactive

Which result is listed for Itpr1 (GeneID 16438) #5?
TNF reporter z-score, mean: -3.55; gene median z, three same-vendor siRNAs: -3.54; activity call: active

For Itpr1 (GeneID 16438) #6, how do the results read?
TNF reporter z-score, mean: -4.36; gene median z, three same-vendor siRNAs: -3.54; activity call: active

What is on record for Tex261 (GeneID 21766) #1?
TNF reporter z-score, mean: -2.36; gene median z, three same-vendor siRNAs: -4.3; activity call: active

What did the screen give for Tex261 (GeneID 21766) #2?
TNF reporter z-score, mean: -4.3; gene median z, three same-vendor siRNAs: -4.3; activity call: active

For Tex261 (GeneID 21766) #3, how do the results read?
TNF reporter z-score, mean: -5.36; gene median z, three same-vendor siRNAs: -4.3; activity call: active

With Tex261 (GeneID 21766) #4, how do the results read?
TNF reporter z-score, mean: 5.71; gene median z, three same-vendor siRNAs: -0.134; activity call: active

With Tex261 (GeneID 21766) #5, how do the results read?
TNF reporter z-score, mean: -1.41; gene median z, three same-vendor siRNAs: -0.134; activity call: inactive

For Tex261 (GeneID 21766) #6, what was measured?
TNF reporter z-score, mean: -0.91; gene median z, three same-vendor siRNAs: -0.134; activity call: inactive

For Mtmr3 (GeneID 74302) #1, what does the deposit list?
TNF reporter z-score, mean: -1.02; gene median z, three same-vendor siRNAs: -2.6; activity call: inactive

Which result is listed for Mtmr3 (GeneID 74302) #2?
TNF reporter z-score, mean: -2.02; gene median z, three same-vendor siRNAs: -2.6; activity call: active

For Mtmr3 (GeneID 74302) #3, how do the results read?
TNF reporter z-score, mean: -3.26; gene median z, three same-vendor siRNAs: -2.6; activity call: active

What is on record for Mtmr3 (GeneID 74302) #4?
TNF reporter z-score, mean: 6.04; gene median z, three same-vendor siRNAs: 0.643; activity call: active

What did the screen give for Mtmr3 (GeneID 74302) #5?
TNF reporter z-score, mean: 1.14; gene median z, three same-vendor siRNAs: 0.643; activity call: inactive

How did the screen score Mtmr3 (GeneID 74302) #6?
TNF reporter z-score, mean: -2.51; gene median z, three same-vendor siRNAs: 0.643; activity call: active

What did the screen give for Polr1a (GeneID 20019) #1?
TNF reporter z-score, mean: -2.59; gene median z, three same-vendor siRNAs: -3.26; activity call: active

What did the screen give for Polr1a (GeneID 20019) #2?
TNF reporter z-score, mean: -2.94; gene median z, three same-vendor siRNAs: -3.26; activity call: active

What is on record for Polr1a (GeneID 20019) #3?
TNF reporter z-score, mean: -4.64; gene median z, three same-vendor siRNAs: -3.26; activity call: active

What did the screen give for Polr1a (GeneID 20019) #4?
TNF reporter z-score, mean: 1.23; gene median z, three same-vendor siRNAs: -0.618; activity call: inactive

Which result is listed for Polr1a (GeneID 20019) #5?
TNF reporter z-score, mean: -0.356; gene median z, three same-vendor siRNAs: -0.618; activity call: inactive

For Polr1a (GeneID 20019) #6, what was measured?
TNF reporter z-score, mean: -1.83; gene median z, three same-vendor siRNAs: -0.618; activity call: inactive
